Values from PubChem BioAssay AID1259308 (NCATS, 2017).

Purpose: 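Candidate targets for better recombinant protein yield in mammalian cells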 (primary screen)
Cells: human HEK293 embryonic kidney cells stably expressing firefly luciferase (HEK-CMV-Luc2-Hygro)
Knock-down reagent: single siRNA against human genes, 0.8 pmol siRNA per well
Duration: 72 h
Detection: 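Reporter luminescence and viable-cell signal on separate replicate plates, given as percent of non-targeting control and median/MAD z-scores, plus per-cell luciferase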
Scale: total luciferase, z-score and total luciferase, % of control: higher = more reporter protein produced; luciferase per cell, z-score: higher = more reporter output per viable cell; viable cells, % of control: higher = more viable cells
Call rule: 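An siRNA counts as active if its total luciferase robust z-score exceeds 3; genes with two or more such siRNAs out of three were retested with fresh siRNAs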
Calls: active = raised luciferase; inactive = no rise
The deposit covers about 59,000 reagents; below is a random part of them. In the full data, about 1,510 (2.6%) are marked active. 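Calls use total luciferase alone and ignore viability, so some active siRNAs may act by altering cell number.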 Unmarked entries are inactive. The numbers tell different reagents against one gene apart.

| target | siRNA no. | total luciferase, z-score | total luciferase, % of control | luciferase per cell, z-score | viable cells, % of control |
| --- | --- | --- | --- | --- | --- |
| NOD1 (nucleotide binding oligomerization domain containing 1) | 1 | 0.972 | 101 | 0.937 | 88.4 |
| NOD1 (nucleotide binding oligomerization domain containing 1) | 2 | 0.137 | 84.6 | -0.138 | 98 |
| NOD1 (nucleotide binding oligomerization domain containing 1) | 3 | 1.45 | 111 | 1.63 | 80.6 |
| PITPNM1 (phosphatidylinositol transfer protein membrane associated 1) | 1 | 0.543 | 92.7 | 0.0476 | 102 |
| PITPNM1 (phosphatidylinositol transfer protein membrane associated 1) | 2 | 0.00576 | 82 | 0.0751 | 89.8 |
| PITPNM1 (phosphatidylinositol transfer protein membrane associated 1) | 3 | 0.0475 | 82.8 | -0.216 | 98 |
| ARPC1B (actin related protein 2/3 complex subunit 1B) | 1 | 0.225 | 86.4 | 0.158 | 92.6 |
| ARPC1B (actin related protein 2/3 complex subunit 1B) | 2 | 1.89 | 120 | 1.41 | 92.2 |
| ARPC1B (actin related protein 2/3 complex subunit 1B) | 3 | -1.11 | 59.8 | -0.664 | 79.6 |
| INSIG1 (insulin induced gene 1) | 1 | 2.89 | 139 | 2.24 | 86.3 |
| INSIG1 (insulin induced gene 1) | 2 | -0.166 | 78.6 | -0.801 | 108 |
| INSIG1 (insulin induced gene 1) | 3 | 0.25 | 86.9 | 0.131 | 93.8 |
| NELFA (negative elongation factor complex member A) | 1 | 2.79 | 137 | 2.76 | 74.1 |
| NELFA (negative elongation factor complex member A) | 2 | 1.31 | 108 | 1.36 | 84.5 |
| NELFA (negative elongation factor complex member A) | 3 | 4.92 (active) | 180 | 2.21 | 112 |
| GZMM (granzyme M) | 1 | -0.545 | 71.1 | -1.05 | 105 |
| GZMM (granzyme M) | 2 | 0.226 | 86.4 | -0.243 | 103 |
| GZMM (granzyme M) | 3 | -0.156 | 78.8 | 0.416 | 78.9 |
| QNG1 (Q-nucleotide N-glycosylase 1) | 1 | -0.133 | 79.2 | -0.2 | 93.3 |
| QNG1 (Q-nucleotide N-glycosylase 1) | 2 | 0.932 | 100 | 0.518 | 97.9 |
| QNG1 (Q-nucleotide N-glycosylase 1) | 3 | 0.539 | 92.6 | 0.193 | 98.4 |
| HDAC1 (histone deacetylase 1) | 1 | -0.627 | 69.4 | -0.0823 | 79.3 |
| HDAC1 (histone deacetylase 1) | 2 | 1.83 | 118 | 1.92 | 79.8 |
| HDAC1 (histone deacetylase 1) | 3 | -0.722 | 67.5 | 0.191 | 71.8 |
| SLC12A8 | 1 | 3.16 (active) | 145 | 2.76 | 78.2 |
| SLC12A8 | 2 | 0.464 | 91.1 | 0.797 | 82.6 |
| SLC12A8 | 3 | 3.32 (active) | 148 | 2.75 | 80.2 |

Targets above whose target name starts with N or n (6):
| target | siRNA no. | total luciferase, z-score | total luciferase, % of control | luciferase per cell, z-score | viable cells, % of control |
| --- | --- | --- | --- | --- | --- |
| NOD1 (nucleotide binding oligomerization domain containing 1) | 1 | 0.972 | 101 | 0.937 | 88.4 |
| NOD1 (nucleotide binding oligomerization domain containing 1) | 2 | 0.137 | 84.6 | -0.138 | 98 |
| NOD1 (nucleotide binding oligomerization domain containing 1) | 3 | 1.45 | 111 | 1.63 | 80.6 |
| NELFA (negative elongation factor complex member A) | 1 | 2.79 | 137 | 2.76 | 74.1 |
| NELFA (negative elongation factor complex member A) | 2 | 1.31 | 108 | 1.36 | 84.5 |
| NELFA (negative elongation factor complex member A) | 3 | 4.92 (active) | 180 | 2.21 | 112 |

More records:
| target | siRNA no. | total luciferase, z-score | total luciferase, % of control | luciferase per cell, z-score | viable cells, % of control |
| --- | --- | --- | --- | --- | --- |
| SPRED3 (sprouty related EVH1 domain containing 3) | 1 | 0.995 | 102 | 0.726 | 93.8 |
| SPRED3 (sprouty related EVH1 domain containing 3) | 2 | 0.769 | 97.2 | 1.28 | 77.4 |
| SPRED3 (sprouty related EVH1 domain containing 3) | 3 | 0.906 | 99.9 | 1.49 | 75.4 |
| OR4C6 (olfactory receptor family 4 subfamily C member 6) | 1 | 3.58 (active) | 153 | 3.21 | 73.4 |
| OR4C6 (olfactory receptor family 4 subfamily C member 6) | 2 | -0.976 | 62.5 | 0.0743 | 68.5 |
| OR4C6 (olfactory receptor family 4 subfamily C member 6) | 3 | 2.16 | 125 | 1.64 | 90.7 |
| SCAMP5 | 1 | -0.998 | 62 | -0.156 | 72.2 |
| SCAMP5 | 2 | -0.205 | 77.8 | -0.183 | 91.2 |
| SCAMP5 | 3 | 0.369 | 89.2 | 0.52 | 87 |
| IFTAP (intraflagellar transport associated protein) | 1 | -0.391 | 74.1 | -0.589 | 96.7 |
| IFTAP (intraflagellar transport associated protein) | 2 | 0.915 | 100 | 1.86 | 68.5 |
| IFTAP (intraflagellar transport associated protein) | 3 | 3.65 (active) | 155 | 2.02 | 101 |
| VEZT (vezatin, adherens junctions transmembrane protein) | 1 | -0.808 | 65.8 | -0.505 | 84 |
| VEZT (vezatin, adherens junctions transmembrane protein) | 2 | 0.938 | 101 | 0.439 | 100 |
| VEZT (vezatin, adherens junctions transmembrane protein) | 3 | 0.626 | 94.3 | 1.38 | 73.3 |
| CBLN4 (cerebellin 4 precursor) | 1 | -0.128 | 79.4 | -0.199 | 93.4 |
| CBLN4 (cerebellin 4 precursor) | 2 | 2.03 | 122 | 1.98 | 81.1 |
| CBLN4 (cerebellin 4 precursor) | 3 | -0.866 | 64.7 | -0.394 | 80.2 |
| DIDO1 (death inducer-obliterator 1) | 1 | -0.33 | 75.3 | -0.238 | 89.6 |
| DIDO1 (death inducer-obliterator 1) | 2 | 0.556 | 92.9 | 0.693 | 86.5 |
| DIDO1 (death inducer-obliterator 1) | 3 | 4.6 (active) | 173 | 2.38 | 103 |
| P3H3 (prolyl 3-hydroxylase 3) | 1 | 0.331 | 88.5 | 0.173 | 94.5 |
| P3H3 (prolyl 3-hydroxylase 3) | 2 | -0.144 | 79 | -0.0441 | 89.3 |
| P3H3 (prolyl 3-hydroxylase 3) | 3 | 0.572 | 93.3 | 0.951 | 81.1 |
| TMEM40 (transmembrane protein 40) | 1 | -0.517 | 71.6 | -0.772 | 98 |
| TMEM40 (transmembrane protein 40) | 2 | 0.242 | 86.7 | 0.15 | 93.1 |
| TMEM40 (transmembrane protein 40) | 3 | 0.167 | 85.2 | -0.0678 | 96.9 |
| NDUFAF6 (NADH:ubiquinone oxidoreductase complex assembly factor 6) | 1 | 0.155 | 85 | -0.342 | 104 |
| NDUFAF6 (NADH:ubiquinone oxidoreductase complex assembly factor 6) | 2 | 1.58 | 113 | 1.27 | 90.6 |
| NDUFAF6 (NADH:ubiquinone oxidoreductase complex assembly factor 6) | 3 | 1.24 | 107 | 1.34 | 83.7 |
| HPGDS (hematopoietic prostaglandin D synthase) | 1 | -1.4 | 54.1 | -1.41 | 87.6 |
| HPGDS (hematopoietic prostaglandin D synthase) | 2 | -2.06 | 40.9 | -2.55 | 89.5 |
| HPGDS (hematopoietic prostaglandin D synthase) | 3 | 0.451 | 90.9 | -0.139 | 105 |
| NEK2 (NIMA related kinase 2) | 1 | 1.91 | 120 | 1.42 | 92.3 |
| NEK2 (NIMA related kinase 2) | 2 | -1.1 | 60.1 | -0.253 | 71.8 |
| NEK2 (NIMA related kinase 2) | 3 | -0.668 | 68.6 | -0.806 | 94.8 |
| ZFP92 (ZFP92 zinc finger protein) | 1 | 0.583 | 93.5 | 0.114 | 101 |
| ZFP92 (ZFP92 zinc finger protein) | 2 | 0.308 | 88 | 0.415 | 88.2 |
| ZFP92 (ZFP92 zinc finger protein) | 3 | 0.681 | 95.4 | 0.169 | 102 |
| AHNAK (AHNAK nucleoprotein) | 1 | 0.0757 | 83.4 | 0.751 | 76.5 |
| AHNAK (AHNAK nucleoprotein) | 2 | -1.28 | 56.5 | -1.37 | 90.6 |
| AHNAK (AHNAK nucleoprotein) | 3 | 1.07 | 103 | 1.02 | 88.3 |
| VPS13A (vacuolar protein sorting 13 homolog A) | 1 | -1.26 | 56.9 | -1.06 | 84.1 |
| VPS13A (vacuolar protein sorting 13 homolog A) | 2 | -0.62 | 69.5 | -0.887 | 98.2 |
| VPS13A (vacuolar protein sorting 13 homolog A) | 3 | 0.252 | 86.9 | -0.0868 | 99.4 |
| NEDD1 (NEDD1 gamma-tubulin ring complex targeting factor) | 1 | 0.0251 | 82.4 | 0.272 | 85.7 |
| NEDD1 (NEDD1 gamma-tubulin ring complex targeting factor) | 2 | 1.25 | 107 | 0.693 | 99.3 |
| NEDD1 (NEDD1 gamma-tubulin ring complex targeting factor) | 3 | 0.597 | 93.8 | 1.22 | 76.1 |
